PubChem BioAssay AID1159578 | Peter MacCallum Cancer Centre | 2015

Test: 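siRNA pools altering how lymphatic endothelial cells close a scratch wound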 (primary screen)
Cells: human lymphatic endothelial cells
Knock-down reagent: siRNA pool against human genes, 40 nM
Time to read-out: 48 h after transfection
Read-out: 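Cells stained with dye and imaged after a scratch; covered wound area and nuclei counted, duplicates averaged, migration set against mock wells and turned into a robust z-score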
Direction: migration robust z-score: higher = faster migration into the scratch; migration relative to mock: higher = more scratch area covered than mock; nuclei per well: higher = more cells in the well
Hit rule: 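Migration changed when robust z exceeds 2 or falls below -2 and mean nuclei number is at least 3300; otherwise not called changed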
Calls: active = migration changed; inactive = no migration change, or too few cells
Shown is one part, drawn at random, of about 18,000 deposited reagents. Over the whole deposit, about 1,030 (5.7%) got an active call. 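Inactive calls also include pools with fewer than 3300 nuclei, whose migration was not assessed.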 The raw values are shown without normalisation. Reagent sequences are not shown.

| gene symbol | migration robust z-score | migration class with cell-count check | migration relative to mock | nuclei per well, duplicate mean | Call |
| --- | --- | --- | --- | --- | --- |
| LRMDA | -1.38 | migration z between -2 and 2; enough cells | 0.53 | 5016 | inactive |
| IFNA17 | 0.57 | migration z between -2 and 2; enough cells | 1.03 | 5688 | inactive |
| TMEM116 | -0.01 | migration z between -2 and 2; enough cells | 0.88 | 6146 | inactive |
| ULBP3 | 0.76 | migration z between -2 and 2; enough cells | 1.08 | 5130 | inactive |
| MDFI | 0.76 | migration z between -2 and 2; enough cells | 1.08 | 5600 | inactive |
| ZNF761 | 0.73 | migration z between -2 and 2; enough cells | 1.08 | 5066 | inactive |
| BORCS8-MEF2B | -0.68 | migration z between -2 and 2; enough cells | 0.68 | 4362 | inactive |
| AGXT | 0.29 | migration z between -2 and 2; enough cells | 0.86 | 4634 | inactive |
| POGLUT3 | -2.39 | migration z below -2; enough cells | 0.27 | 6418 | active |
| OR7A5 | -1.68 | under 3300 nuclei; migration not judged | 0.45 | 3238 | inactive |
| SKA2 | 1.47 | migration z between -2 and 2; enough cells | 1.27 | 6154 | inactive |
| AKAP12 | 1.31 | migration z between -2 and 2; enough cells | 1.23 | 6314 | inactive |
| KRTAP20-2 | -1.19 | migration z between -2 and 2; enough cells | 0.58 | 5468 | inactive |
| KRTAP4-12 | 0.52 | migration z between -2 and 2; enough cells | 1.02 | 3970 | inactive |
| GCLM | 0.13 | migration z between -2 and 2; enough cells | 0.83 | 6656 | inactive |
| PIGC | -0.57 | migration z between -2 and 2; enough cells | 0.7 | 5490 | inactive |
| DUOX2 | -1.25 | migration z between -2 and 2; enough cells | 0.56 | 5447 | inactive |
| LRRK1 | -0.83 | migration z between -2 and 2; enough cells | 0.64 | 4972 | inactive |
| PSMC2 | -0.94 | migration z between -2 and 2; enough cells | 0.62 | 6204 | inactive |
| OR52L1 | -1.46 | migration z between -2 and 2; enough cells | 0.5 | 5224 | inactive |
| CRLF2 | 0.05 | migration z between -2 and 2; enough cells | 0.82 | 4830 | inactive |
| SLITRK5 | -0.26 | migration z between -2 and 2; enough cells | 0.82 | 6030 | inactive |
| UBXN1 | -0.09 | migration z between -2 and 2; enough cells | 0.86 | 4566 | inactive |
| SYT5 | -1.01 | migration z between -2 and 2; enough cells | 0.62 | 5802 | inactive |
| LNP1 | 0.38 | migration z between -2 and 2; enough cells | 0.99 | 6018 | inactive |
| OR8D2 | -0.3 | migration z between -2 and 2; enough cells | 0.8 | 5382 | inactive |
| SEC13 | -1.38 | migration z between -2 and 2; enough cells | 0.52 | 3604 | inactive |
| VEGFC | 1.35 | migration z between -2 and 2; enough cells | 1.06 | 5978 | inactive |
| OVCA2 | -0.08 | migration z between -2 and 2; enough cells | 0.79 | 5545 | inactive |
| TCAF1 | -0.01 | migration z between -2 and 2; enough cells | 0.88 | 5807 | inactive |
| ST8SIA4 | -0.1 | migration z between -2 and 2; enough cells | 0.78 | 6716 | inactive |
| IFT25 | -1.13 | migration z between -2 and 2; enough cells | 0.59 | 4614 | inactive |
| LRRC75A | 0.1 | migration z between -2 and 2; enough cells | 0.91 | 6446 | inactive |
| PRKRA | 0.96 | migration z between -2 and 2; enough cells | 1.14 | 5747 | inactive |
| ILDR2 | 0.28 | migration z between -2 and 2; enough cells | 0.96 | 5682 | inactive |
| RUNX3 | -0.68 | migration z between -2 and 2; enough cells | 0.68 | 5180 | inactive |
| DSG3 | 0.6 | migration z between -2 and 2; enough cells | 1.04 | 6207 | inactive |
| PRKAB2 | -0.32 | migration z between -2 and 2; enough cells | 0.74 | 4226 | inactive |
| TRAPPC1 | -0.81 | migration z between -2 and 2; enough cells | 0.68 | 6891 | inactive |

Taken from above.
OR52L1, nuclei per well, duplicate mean → 5224
ULBP3, migration class with cell-count check: migration z between -2 and 2; enough cells
